These are yes or no findings as the source states them, for the method shown. Binding seen in cells or lysates may run through a third protein. A yes stands for co-enrichment or nearness to the bait. Other partners may have been found.
Biological target: SARS-CoV-2 ORF6-HA (SARS-CoV-2) (UniProt P0DTC6)
Assay: affinity purification with mass spectrometry

Sequences of proteins named here, by UniProt entry; tags and fusion partners are left off. A change or cut given only in a name is not applied to a line headed by its entry.
UniProt P0DTC6, whole entry, stated change not applied: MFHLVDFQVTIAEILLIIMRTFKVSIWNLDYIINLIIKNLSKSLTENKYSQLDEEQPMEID

Cullin 4B (CUL4B), endogenous (from UniProt Q13620 1-913)
binding: binds

From publication PMC10865787
